Data published in patent US20110206689A1, “Molecular Determinants Associated With Prostate Cancer And Methods Of Use Thereof” (Dana-Farber Cancer Institute, Inc., priority 2010, published 2011).

Amino acid sequences for entries named in this document (tags omitted).
UniProt P31749: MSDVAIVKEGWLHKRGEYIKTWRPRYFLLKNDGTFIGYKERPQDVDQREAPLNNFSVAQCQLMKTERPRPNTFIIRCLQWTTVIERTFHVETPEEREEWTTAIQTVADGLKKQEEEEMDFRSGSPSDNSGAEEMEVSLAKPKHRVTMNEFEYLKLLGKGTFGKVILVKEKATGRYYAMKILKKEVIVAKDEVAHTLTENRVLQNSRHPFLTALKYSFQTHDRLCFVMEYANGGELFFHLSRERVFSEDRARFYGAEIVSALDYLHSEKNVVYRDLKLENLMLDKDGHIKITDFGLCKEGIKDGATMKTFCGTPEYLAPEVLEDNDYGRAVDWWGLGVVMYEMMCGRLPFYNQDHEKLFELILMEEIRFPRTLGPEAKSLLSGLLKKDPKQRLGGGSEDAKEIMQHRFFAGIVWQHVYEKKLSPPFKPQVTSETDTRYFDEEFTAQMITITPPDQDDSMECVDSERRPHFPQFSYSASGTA

Molecular target: AKT1 (UniProt P31749)
Assay: Flag immunoprecipitation of TK1 immune complexes from androgen independent tumors, mass spectrometry

binding: binds
B1: Flag-tagged thymidine kinase 1 (TK1) (enzyme, human, UniProt P04183 1-234, looked up)
chain: MSCINLPTVLPGSPSKTRGQIQVILGPMFSGKSTELMRRVRRFQIAQYKCLVIKYAKDTRYSSSFCTHDRNTMEALPACLLRDVAQEALGVAVIGIDEGQFFPDIVEFCEAMANAGKTVIVAALDGTFQRKPFGAILNLVPLAESVVKLTAVCMECFREAAYTKRLGTEKEVEVIGGADKYHSVCRLCYFKKASGQPAGPDNKENCPVPGKPGEAVAARKLFAPQQILQCSPAN

Results are given in words; binding and its absence hold for the method and conditions named. In cells and extracts the contact can be indirect. A yes stands for co-enrichment or nearness to the bait. Other partners may have been found. Tags and fused reporters may be left off the sequences shown.
